Measurements taken from paper PMC11516111.
Where a chain is given by its changes, count along the chain named. Names may count otherwise. No constants are given. Whether binding was seen depends on the method and setting. In cells and extracts the contact can be indirect. Some entries that bind do so weakly or less than the wild type. For some assays here: Tags and fused reporters may be left off the sequences shown.

By UniProt entry, the sequences of proteins in these tests, tags left out. Residues count along the entry.
UniProt P35869, residues 11-848: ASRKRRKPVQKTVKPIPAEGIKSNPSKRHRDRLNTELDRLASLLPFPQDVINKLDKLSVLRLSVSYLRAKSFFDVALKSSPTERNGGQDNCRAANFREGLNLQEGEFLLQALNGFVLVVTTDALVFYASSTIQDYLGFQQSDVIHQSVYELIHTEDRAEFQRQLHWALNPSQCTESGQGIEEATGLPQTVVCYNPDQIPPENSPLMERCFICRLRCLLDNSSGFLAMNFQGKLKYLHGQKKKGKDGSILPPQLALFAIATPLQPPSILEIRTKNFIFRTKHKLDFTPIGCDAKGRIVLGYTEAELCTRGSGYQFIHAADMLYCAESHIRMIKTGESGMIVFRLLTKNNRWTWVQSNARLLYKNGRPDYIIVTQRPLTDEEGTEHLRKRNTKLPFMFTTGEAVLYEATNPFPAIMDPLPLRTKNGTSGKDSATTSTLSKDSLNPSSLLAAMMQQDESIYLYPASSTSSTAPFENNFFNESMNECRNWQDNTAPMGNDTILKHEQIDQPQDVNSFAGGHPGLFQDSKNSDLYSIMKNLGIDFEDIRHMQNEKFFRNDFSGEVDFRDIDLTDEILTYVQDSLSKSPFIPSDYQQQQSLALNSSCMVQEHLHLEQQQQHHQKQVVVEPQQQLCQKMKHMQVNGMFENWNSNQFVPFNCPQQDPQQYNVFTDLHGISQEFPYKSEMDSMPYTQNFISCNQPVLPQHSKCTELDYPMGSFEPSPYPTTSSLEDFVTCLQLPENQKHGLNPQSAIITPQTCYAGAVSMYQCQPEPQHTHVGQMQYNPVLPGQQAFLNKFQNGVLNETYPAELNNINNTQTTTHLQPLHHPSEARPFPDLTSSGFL
UniProt P27540: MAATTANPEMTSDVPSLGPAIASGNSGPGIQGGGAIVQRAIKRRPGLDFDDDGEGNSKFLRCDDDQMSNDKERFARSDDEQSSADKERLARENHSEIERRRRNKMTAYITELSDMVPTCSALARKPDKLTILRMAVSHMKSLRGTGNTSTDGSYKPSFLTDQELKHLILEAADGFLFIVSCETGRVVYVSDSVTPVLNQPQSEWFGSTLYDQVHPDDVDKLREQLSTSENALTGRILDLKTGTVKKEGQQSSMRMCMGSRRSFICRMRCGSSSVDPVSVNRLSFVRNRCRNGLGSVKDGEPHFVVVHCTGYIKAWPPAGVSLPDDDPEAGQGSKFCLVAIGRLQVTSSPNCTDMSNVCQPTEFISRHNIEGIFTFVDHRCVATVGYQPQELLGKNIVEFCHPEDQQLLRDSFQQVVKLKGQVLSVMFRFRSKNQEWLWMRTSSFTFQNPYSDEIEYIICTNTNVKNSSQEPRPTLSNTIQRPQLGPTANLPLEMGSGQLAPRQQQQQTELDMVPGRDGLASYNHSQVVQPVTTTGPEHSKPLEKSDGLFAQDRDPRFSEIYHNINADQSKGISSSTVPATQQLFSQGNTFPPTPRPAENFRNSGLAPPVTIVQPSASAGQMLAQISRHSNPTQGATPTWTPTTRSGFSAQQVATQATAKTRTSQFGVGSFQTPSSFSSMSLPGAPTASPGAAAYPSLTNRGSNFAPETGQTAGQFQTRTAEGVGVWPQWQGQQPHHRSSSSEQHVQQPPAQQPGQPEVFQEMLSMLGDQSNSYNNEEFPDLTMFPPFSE

How the values were obtained:
[1] = molecular target: aryl hydrocarbon receptor (AHR), endogenous in HeLa cells (human (endogenous in HeLa)) (UniProt P35869); experiment: co-IP; IP assays that compare SPHK2 and SPHK1 with AHR (Figure S3A,B); cells and precipitating antibody not told in the text shown
[2] = molecular target: aryl hydrocarbon receptor nuclear translocator (ARNT), endogenous in HeLa cells (human (endogenous in HeLa)) (UniProt P27540); experiment: co-IP; endogenous proteins; HeLa cytoplasmic and nuclear extracts, cells with or without TCDF (0.1 uM, 30 min) or ICZ; antibody to AHR, SPHK2 or ARNT on Protein G magnetic beads, 600-800 ug protein, 90 min at 4 C, washed with TBS; western blot
[3] = molecular target: aryl hydrocarbon receptor (AHR), endogenous in HeLa cells (human (endogenous in HeLa)) (UniProt P35869); experiment: as above
[4] = molecular target: hAHR-FLAG (human AHR from pcDNA3-hAHR-FLAG) (human) (UniProt P35869); experiment: co-IP; COS-1 cells co-transfected with hAHR-FLAG and hSPHK2-HA WT or mutant, 48-72 h, TCDF 30 min, cytoplasmic/nuclear extract fractionation; equal protein on Anti-FLAG M2 magnetic beads 2 h at 4 C; western blot
[5] = molecular target: aryl hydrocarbon receptor (AHR), endogenous in Huh7 cells (human (endogenous in Huh7)) (UniProt P35869); experiment: co-IP; endogenous proteins in Huh7 cells (Figure S4A); details not told in the text shown

B1: sphingosine kinase 2 (SPHK2), endogenous in HeLa cells (enzyme, UniProt Q9NRA0 1-654)
chain: MNGHLEAEEQQDQRPDQELTGSWGHGPRSTLVRAKAMAPPPPPLAASTPLLHGEFGSYPARGPRFALTLTSQALHIQRLRPKPEARPRGGLVPLAEVSGCCTLRSRSPSDSAAYFCIYTYPRGRRGARRRATRTFRADGAATYEENRAEAQRWATALTCLLRGLPLPGDGEITPDLLPRPPRLLLLVNPFGGRGLAWQWCKNHVLPMISEAGLSFNLIQTERQNHARELVQGLSLSEWDGIVTVSGDGLLHEVLNGLLDRPDWEEAVKMPVGILPCGSGNALAGAVNQHGGFEPALGLDLLLNCSLLLCRGGGHPLDLLSVTLASGSRCFSFLSVAWGFVSDVDIQSERFRALGSARFTLGTVLGLATLHTYRGRLSYLPATVEPASPTPAHSLPRAKSELTLTPDPAPPMAHSPLHRSVSDLPLPLPQPALASPGSPEPLPILSLNGGGPELAGDWGGAGDAPLSPDPLLSSPPGSPKAALHSPVSEGAPVIPPSSGLPLPTPDARVGASTCGPPDHLLPPLGTPLPPDWVTLEGDFVLMLAISPSHLGADLVAAPHARFDDGLVHLCWVRSGISRAALLRLFLAMERGSHFSLGCPQLGYAAARAFRLEPLTPRGVLTVDGEQVEYGPLQAQMHPGIGTLLTGPPGCPGREP
In the case of B1, the binding [1] is reported as “binds”, the binding [2] is reported as “binds” and the binding [3] is reported as “binds”.

B2: hSPHK2-HA L157A (enzyme, UniProt Q9NRA0 1-654)
chain: B1 chain with L157A
For B2, the binding [4] was “binds”.

B3: hSPHK2-HA L254V (enzyme, UniProt Q9NRA0 1-654)
chain: B1 chain with L254V
B3 was tested, and the binding [4] was “binds”.

B4: hSPHK2-HA L298G (enzyme, UniProt Q9NRA0 1-654)
chain: B1 chain with L298G
B4 was tested, and the binding [4] was “binds”.

B5: hSPHK2-HA L157A/L254V/L298G (triple LXXLL mutation) (enzyme, UniProt Q9NRA0 1-654)
chain: B1 chain with L157A, L254V, L298G
In the case of B5, the binding [4] is reported as “binds”.

B6: hSPHK2-HA L254A (enzyme, UniProt Q9NRA0 1-654)
chain: B1 chain with L254A
For B6, the binding [4] was “binds”.

B7: hSPHK2-HA L298A (enzyme, UniProt Q9NRA0 1-654)
chain: B1 chain with L298A
With B7 the binding [4] was “binds”.

B8: sphingosine kinase 2 (SPHK2), endogenous in Huh7 cells (enzyme, UniProt Q9NRA0 1-654)
chain: B1 chain
With B8 the binding [5] was “binds”.

B9: hSPHK2-HA WT (HA tagged human SPHK2) (enzyme, UniProt Q9NRA0 1-654)
chain: B1 chain
With B9 the binding [4] was “binds”.
